# Results from publication doi:10.1101/2020.07.06.189340.
# The chains behind the UniProt entries cited, without tags or fusion partners.
# UniProt O14980: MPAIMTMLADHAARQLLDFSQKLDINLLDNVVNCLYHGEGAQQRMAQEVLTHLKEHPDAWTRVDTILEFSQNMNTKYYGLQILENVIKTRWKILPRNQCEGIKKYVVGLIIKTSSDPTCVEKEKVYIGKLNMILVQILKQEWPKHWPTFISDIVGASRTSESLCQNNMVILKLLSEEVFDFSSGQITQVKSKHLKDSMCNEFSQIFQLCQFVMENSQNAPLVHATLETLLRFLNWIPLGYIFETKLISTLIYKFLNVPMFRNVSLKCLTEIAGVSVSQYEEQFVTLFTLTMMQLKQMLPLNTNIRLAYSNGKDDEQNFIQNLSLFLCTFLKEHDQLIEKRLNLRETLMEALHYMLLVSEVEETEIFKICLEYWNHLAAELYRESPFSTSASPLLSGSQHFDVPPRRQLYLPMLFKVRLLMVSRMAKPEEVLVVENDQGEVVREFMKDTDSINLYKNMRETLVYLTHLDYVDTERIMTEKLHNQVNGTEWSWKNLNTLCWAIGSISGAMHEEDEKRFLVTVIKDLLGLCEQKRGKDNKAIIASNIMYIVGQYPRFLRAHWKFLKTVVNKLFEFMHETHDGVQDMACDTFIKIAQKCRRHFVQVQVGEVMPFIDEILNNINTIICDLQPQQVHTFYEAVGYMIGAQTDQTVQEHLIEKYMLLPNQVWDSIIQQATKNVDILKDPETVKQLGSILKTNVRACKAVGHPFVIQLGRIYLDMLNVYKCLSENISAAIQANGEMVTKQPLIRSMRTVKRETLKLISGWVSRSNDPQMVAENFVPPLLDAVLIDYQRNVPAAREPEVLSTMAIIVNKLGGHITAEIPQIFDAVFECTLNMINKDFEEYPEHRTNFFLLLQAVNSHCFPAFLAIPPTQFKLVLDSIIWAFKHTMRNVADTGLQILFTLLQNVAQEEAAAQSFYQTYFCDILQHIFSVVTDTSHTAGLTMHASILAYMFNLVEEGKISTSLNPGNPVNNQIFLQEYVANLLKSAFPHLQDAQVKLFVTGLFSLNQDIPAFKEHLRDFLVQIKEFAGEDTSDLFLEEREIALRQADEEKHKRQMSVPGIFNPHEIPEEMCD
# UniProt Q14204: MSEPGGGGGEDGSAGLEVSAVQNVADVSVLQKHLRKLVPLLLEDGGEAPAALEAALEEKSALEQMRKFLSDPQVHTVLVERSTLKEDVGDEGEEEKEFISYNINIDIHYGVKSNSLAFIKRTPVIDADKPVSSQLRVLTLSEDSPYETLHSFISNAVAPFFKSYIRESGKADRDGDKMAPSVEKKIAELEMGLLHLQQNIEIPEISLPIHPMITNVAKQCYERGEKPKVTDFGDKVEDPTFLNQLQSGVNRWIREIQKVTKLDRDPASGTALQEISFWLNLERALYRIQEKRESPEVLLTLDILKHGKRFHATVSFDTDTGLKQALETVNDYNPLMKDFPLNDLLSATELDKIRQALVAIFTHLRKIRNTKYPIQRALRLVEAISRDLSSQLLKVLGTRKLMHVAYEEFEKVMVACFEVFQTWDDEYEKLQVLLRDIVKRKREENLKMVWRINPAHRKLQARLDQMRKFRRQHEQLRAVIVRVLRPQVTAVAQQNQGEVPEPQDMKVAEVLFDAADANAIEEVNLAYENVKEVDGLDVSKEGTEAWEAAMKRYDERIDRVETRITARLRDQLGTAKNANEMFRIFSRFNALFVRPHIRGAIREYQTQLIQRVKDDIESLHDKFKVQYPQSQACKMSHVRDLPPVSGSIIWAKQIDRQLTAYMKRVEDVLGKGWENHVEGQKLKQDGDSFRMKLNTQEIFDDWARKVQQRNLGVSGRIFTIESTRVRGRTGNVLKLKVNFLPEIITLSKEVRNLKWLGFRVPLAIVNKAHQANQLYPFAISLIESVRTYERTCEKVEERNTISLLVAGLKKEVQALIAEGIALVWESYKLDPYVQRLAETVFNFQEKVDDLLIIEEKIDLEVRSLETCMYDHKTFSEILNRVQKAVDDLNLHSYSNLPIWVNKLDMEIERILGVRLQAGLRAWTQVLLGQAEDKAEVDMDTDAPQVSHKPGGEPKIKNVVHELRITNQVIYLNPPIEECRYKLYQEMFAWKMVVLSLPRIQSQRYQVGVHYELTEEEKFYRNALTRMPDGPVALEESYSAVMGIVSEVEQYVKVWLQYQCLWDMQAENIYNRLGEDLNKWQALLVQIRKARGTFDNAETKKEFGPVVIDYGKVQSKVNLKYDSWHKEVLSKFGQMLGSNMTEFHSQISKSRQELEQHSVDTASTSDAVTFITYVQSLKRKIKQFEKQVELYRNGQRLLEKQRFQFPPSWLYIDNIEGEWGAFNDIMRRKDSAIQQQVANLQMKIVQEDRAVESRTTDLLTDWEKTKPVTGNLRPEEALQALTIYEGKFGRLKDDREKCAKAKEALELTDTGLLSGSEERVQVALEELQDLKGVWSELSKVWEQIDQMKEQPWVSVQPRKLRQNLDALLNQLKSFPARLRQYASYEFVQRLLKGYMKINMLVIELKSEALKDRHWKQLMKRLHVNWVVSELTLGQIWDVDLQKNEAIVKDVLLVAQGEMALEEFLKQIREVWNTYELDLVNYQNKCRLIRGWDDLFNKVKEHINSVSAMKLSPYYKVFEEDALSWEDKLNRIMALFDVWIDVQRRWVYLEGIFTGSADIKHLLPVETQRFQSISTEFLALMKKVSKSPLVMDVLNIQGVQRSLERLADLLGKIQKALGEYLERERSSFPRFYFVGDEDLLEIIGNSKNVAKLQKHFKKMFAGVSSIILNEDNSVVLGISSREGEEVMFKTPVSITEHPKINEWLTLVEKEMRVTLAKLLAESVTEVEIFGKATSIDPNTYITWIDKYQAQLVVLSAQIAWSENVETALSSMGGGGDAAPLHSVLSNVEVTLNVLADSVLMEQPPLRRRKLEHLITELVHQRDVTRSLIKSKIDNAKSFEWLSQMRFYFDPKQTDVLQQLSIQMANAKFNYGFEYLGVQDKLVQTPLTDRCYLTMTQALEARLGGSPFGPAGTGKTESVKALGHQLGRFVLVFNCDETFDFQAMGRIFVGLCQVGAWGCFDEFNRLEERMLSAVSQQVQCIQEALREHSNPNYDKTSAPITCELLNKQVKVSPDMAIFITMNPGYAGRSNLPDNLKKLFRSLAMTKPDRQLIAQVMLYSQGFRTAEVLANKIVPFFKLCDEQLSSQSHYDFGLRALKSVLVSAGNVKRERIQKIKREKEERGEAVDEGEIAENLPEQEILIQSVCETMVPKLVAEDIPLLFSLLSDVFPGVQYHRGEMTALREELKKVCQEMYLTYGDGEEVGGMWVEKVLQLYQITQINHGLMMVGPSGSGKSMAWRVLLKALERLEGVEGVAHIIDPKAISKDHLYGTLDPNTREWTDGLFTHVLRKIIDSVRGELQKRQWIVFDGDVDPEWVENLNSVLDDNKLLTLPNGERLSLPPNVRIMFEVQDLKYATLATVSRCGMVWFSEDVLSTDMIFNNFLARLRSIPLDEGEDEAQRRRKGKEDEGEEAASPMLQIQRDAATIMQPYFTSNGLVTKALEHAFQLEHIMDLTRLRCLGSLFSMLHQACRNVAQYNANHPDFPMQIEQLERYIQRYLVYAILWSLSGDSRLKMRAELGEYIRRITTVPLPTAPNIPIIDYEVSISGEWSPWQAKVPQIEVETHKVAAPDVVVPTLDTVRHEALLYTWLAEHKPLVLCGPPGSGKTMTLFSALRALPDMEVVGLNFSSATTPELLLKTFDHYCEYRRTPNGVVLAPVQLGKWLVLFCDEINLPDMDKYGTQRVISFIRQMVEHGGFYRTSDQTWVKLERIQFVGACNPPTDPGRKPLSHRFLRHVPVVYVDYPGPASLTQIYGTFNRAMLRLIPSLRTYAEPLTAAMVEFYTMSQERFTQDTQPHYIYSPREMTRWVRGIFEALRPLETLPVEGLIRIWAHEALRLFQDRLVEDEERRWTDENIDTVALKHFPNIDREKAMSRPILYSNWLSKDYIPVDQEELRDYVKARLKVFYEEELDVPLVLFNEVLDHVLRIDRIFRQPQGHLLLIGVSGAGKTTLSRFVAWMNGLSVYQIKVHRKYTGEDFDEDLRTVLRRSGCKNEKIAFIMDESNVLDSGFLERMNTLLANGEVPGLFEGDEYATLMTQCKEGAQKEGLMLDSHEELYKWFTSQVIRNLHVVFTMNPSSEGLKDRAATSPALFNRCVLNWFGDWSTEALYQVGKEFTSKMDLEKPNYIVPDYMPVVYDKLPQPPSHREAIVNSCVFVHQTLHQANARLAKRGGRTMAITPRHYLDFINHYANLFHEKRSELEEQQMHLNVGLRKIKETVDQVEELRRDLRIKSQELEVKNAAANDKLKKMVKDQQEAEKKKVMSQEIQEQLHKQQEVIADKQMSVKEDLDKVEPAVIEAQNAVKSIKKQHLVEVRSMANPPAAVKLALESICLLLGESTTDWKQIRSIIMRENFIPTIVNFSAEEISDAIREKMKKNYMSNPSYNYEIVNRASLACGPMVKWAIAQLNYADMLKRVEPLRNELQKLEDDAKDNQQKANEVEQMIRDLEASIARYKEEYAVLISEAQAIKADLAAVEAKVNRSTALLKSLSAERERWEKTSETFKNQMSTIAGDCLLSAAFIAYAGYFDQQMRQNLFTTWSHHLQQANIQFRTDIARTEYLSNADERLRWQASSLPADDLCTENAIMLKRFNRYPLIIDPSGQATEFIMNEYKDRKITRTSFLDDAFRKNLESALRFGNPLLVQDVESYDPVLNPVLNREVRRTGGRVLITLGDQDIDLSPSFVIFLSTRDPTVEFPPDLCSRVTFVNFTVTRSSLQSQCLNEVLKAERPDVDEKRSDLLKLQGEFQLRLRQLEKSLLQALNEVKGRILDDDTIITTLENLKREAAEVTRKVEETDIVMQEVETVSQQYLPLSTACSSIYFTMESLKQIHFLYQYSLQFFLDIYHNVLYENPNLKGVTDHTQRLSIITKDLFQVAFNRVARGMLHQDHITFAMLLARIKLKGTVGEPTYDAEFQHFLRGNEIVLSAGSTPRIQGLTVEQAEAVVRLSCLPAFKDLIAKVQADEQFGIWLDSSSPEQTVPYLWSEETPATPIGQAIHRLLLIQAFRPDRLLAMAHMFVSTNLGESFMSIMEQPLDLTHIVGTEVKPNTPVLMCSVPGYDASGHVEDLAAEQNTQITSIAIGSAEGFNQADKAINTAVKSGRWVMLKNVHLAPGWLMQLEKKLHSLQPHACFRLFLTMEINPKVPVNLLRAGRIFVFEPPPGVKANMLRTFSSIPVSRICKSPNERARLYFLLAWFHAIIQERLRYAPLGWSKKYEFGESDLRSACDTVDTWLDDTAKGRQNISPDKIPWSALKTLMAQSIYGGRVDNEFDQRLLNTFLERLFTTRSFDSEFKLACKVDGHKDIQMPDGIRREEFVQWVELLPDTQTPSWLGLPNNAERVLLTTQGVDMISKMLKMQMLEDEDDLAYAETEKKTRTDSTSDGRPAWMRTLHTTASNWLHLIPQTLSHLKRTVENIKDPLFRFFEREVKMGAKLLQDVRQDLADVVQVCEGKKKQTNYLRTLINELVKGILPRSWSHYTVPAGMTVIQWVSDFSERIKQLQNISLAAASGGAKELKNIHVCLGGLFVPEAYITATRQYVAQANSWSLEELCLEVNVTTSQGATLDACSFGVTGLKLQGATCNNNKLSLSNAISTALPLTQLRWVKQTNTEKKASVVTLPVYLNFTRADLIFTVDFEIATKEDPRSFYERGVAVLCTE
# Results are given in words; binding and its absence hold for the method and conditions named. In cells and extracts the contact can be indirect. A yes stands for co-enrichment or nearness to the bait. Other partners may have been found. Sequences can lack the tags named with a protein.
# Molecular target: T1, GFP-Rab46 Q604L (constitutively active, GTP-locked) (human) (UniProt Q9BSW2)
# T1 sequence: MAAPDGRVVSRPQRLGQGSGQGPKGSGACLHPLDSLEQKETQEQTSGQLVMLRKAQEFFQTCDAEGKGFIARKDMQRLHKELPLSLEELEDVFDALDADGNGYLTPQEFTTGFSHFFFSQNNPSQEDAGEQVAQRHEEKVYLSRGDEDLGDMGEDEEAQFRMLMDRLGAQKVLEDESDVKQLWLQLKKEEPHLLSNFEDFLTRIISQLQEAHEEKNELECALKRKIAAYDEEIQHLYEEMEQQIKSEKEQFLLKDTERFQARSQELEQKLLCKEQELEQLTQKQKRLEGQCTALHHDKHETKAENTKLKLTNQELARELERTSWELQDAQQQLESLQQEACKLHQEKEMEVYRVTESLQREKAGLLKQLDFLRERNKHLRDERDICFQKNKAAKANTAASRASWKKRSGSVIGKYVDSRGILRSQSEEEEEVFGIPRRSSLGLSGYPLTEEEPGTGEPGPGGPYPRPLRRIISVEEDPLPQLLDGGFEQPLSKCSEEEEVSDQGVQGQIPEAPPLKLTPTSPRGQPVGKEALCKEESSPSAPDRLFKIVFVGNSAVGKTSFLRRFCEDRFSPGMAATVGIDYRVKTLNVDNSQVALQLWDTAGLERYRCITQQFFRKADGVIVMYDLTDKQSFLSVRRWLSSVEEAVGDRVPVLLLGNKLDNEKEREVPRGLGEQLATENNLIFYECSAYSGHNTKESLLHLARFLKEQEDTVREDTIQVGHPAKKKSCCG
# Experiment: affinity purification with mass spectrometry
row,Substance,binding
1,CLTC (from UniProt Q00610 1-1675),binds
2,COPA (from UniProt P53621),binds
3,CYFIP1 (from UniProt Q7L576 1-1253),binds
4,FLNA (from UniProt P21333 1-2647),binds
5,XPO1 (from UniProt O14980 1-1071),binds
6,"dynein heavy chain (DHC), endogenous (from UniProt Q14204 1-4646)",binds
